# Source: PubChem BioAssay AID743454 (Peter MacCallum Cancer Centre, 2014)
# Screen: 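Knock-downs lowering viability or raising caspase 3/7 activity in vorinostat-treated resistant cells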 (primary screen)
# System: human HCT116-VR colon cancer cells, selected for vorinostat resistance
# Reagent: siRNA pool against human genes, 40 nM siRNA pool
# Duration: vorinostat for 24 h, read-out about 72 h after transfection
# Treatment: vorinostat at 2.5 µM final
# Read-out: 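Cell viability by CellTiter-Fluor and caspase 3/7 activity by luminescence, each scaled to mock wells per plate, duplicates averaged, then robust z-scored over all plates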
# Direction: viability robust z-score: higher = more viable cells than screen typical; caspase robust z-score: higher = more caspase 3/7 activity than screen typical
# Rule for the call: 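a knock-down is a hit when classed RV1 or RV2 for lowered viability, or CA1 or CA2 for caspase activation; those lethal without drug were dropped; hits were retested singly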
# In all, the deposit lists about 18,000 reagents; this is a part drawn at random. 450 of them (2.5%) were called active. 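Single biological run; no consistent viability z cut-off exists, so the class columns, not z-scores, define the calls.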
gene,PubChem SID,viability hit class,caspase hit class,viability robust z-score,caspase robust z-score,Outcome
ACP6,SID152149507,no change,no change,1.15,-0.35,inactive
DOK7,SID135623596,no change,no change,0.64,-0.13,inactive
TRIM65,SID152149536,no change,no change,-0.15,-0.53,inactive
NRXN2,SID134317155,no change,no change,-0.23,-1.43,inactive
PICK1,SID56479292,no change,no change,2.58,0.18,inactive
RASL10B,SID134313221,no change,no change,-3.4,2.28,inactive
LRRK1,SID135620970,no change,no change,1.17,-0.11,inactive
DDI1,SID152147968,no change,no change,-3.58,2.03,inactive
TRAPPC6B,SID152148552,no change,no change,0.29,-0.23,inactive
RPH3AL,SID152148679,no change,no change,1.04,0.38,inactive
TMBIM4,SID135623950,no change,no change,-0.24,0.01,inactive
MAPKAPK2,SID56478668,no change,no change,0.51,-0.09,inactive
RRP1B,SID135624987,no change,no change,0.34,-0.26,inactive
CTSL3P,SID135624818,no change,no change,1.06,-0.66,inactive
CSF2RB,SID134312803,no change,no change,-0.97,1.07,inactive
NUP37,SID134318450,no change,no change,0.16,-0.5,inactive
NR4A3,SID135620675,no change,no change,0.26,-0.32,inactive
KPNA4,SID134321412,no change,no change,-0.38,-0.88,inactive
GOLGA8EP,SID152156727,no change,no change,0.16,-0.92,inactive
DAPP1,SID152149785,no change,no change,-0.25,0.06,inactive
CNRIP1,SID135622644,no change,no change,1.42,0.88,inactive
TUBA3D,SID152148086,no change,no change,0.02,0.1,inactive
AKAP3,SID56479231,no change,no change,-0.76,-0.92,inactive
ACY3,SID134314970,no change,no change,0.13,2.77,inactive
GNA14,SID134313428,no change,no change,0.99,-0.56,inactive
CREBZF,SID135622640,no change,no change,-0.22,1.17,inactive
GPR78,SID134311038,no change,no change,-0.11,0.72,inactive
TRAK2,SID134318318,no change,no change,0.29,1.4,inactive
AKT1S1,SID152155376,no change,no change,0.59,0.16,inactive
ELK3,SID134314893,no change,no change,0.16,-1.06,inactive
GOT1,SID152150086,no change,no change,0.64,-0.8,inactive
LIPG,SID135621807,no change,no change,0.68,-0.08,inactive
APOBEC3B,SID135623311,no change,no change,1.28,1.39,inactive
PCDHB5,SID134317746,no change,no change,-0.64,-0.38,inactive
CTSO,SID135621083,no change,no change,-0.12,-0.27,inactive
CAMLG,SID152154051,no change,no change,-0.33,0.07,inactive
SLC38A2,SID134312605,no change,no change,0.46,0.06,inactive
CIMIP7,SID135625512,no change,no change,-2.2,1.7,inactive
TMEM200A,SID134319213,no change,no change,0.14,1.01,inactive

Reformatted: 5 of the entries above.
{"gene": "ACY3", "PubChem SID": "SID134314970", "viability hit class": "no change", "caspase hit class": "no change", "viability robust z-score": 0.13, "caspase robust z-score": 2.77, "Outcome": "inactive"}
{"gene": "GNA14", "PubChem SID": "SID134313428", "viability hit class": "no change", "caspase hit class": "no change", "viability robust z-score": 0.99, "caspase robust z-score": -0.56, "Outcome": "inactive"}
{"gene": "CREBZF", "PubChem SID": "SID135622640", "viability hit class": "no change", "caspase hit class": "no change", "viability robust z-score": -0.22, "caspase robust z-score": 1.17, "Outcome": "inactive"}
{"gene": "GPR78", "PubChem SID": "SID134311038", "viability hit class": "no change", "caspase hit class": "no change", "viability robust z-score": -0.11, "caspase robust z-score": 0.72, "Outcome": "inactive"}
{"gene": "TRAK2", "PubChem SID": "SID134318318", "viability hit class": "no change", "caspase hit class": "no change", "viability robust z-score": 0.29, "caspase robust z-score": 1.4, "Outcome": "inactive"}
